No constants are given. Whether binding was seen depends on the method and setting. For some assays here: Binding seen in cells or lysates may run through a third protein. Some binding calls cover weakened binding; strength is not graded here. For some assays here: Where a sequence is shown, tags or fusion partners need not be part of it.
Tests used:
V5-tagged CRY1 = target: T1, V5-tagged CRY1 (UniProt P97784); assay: co-IP
T1 sequence: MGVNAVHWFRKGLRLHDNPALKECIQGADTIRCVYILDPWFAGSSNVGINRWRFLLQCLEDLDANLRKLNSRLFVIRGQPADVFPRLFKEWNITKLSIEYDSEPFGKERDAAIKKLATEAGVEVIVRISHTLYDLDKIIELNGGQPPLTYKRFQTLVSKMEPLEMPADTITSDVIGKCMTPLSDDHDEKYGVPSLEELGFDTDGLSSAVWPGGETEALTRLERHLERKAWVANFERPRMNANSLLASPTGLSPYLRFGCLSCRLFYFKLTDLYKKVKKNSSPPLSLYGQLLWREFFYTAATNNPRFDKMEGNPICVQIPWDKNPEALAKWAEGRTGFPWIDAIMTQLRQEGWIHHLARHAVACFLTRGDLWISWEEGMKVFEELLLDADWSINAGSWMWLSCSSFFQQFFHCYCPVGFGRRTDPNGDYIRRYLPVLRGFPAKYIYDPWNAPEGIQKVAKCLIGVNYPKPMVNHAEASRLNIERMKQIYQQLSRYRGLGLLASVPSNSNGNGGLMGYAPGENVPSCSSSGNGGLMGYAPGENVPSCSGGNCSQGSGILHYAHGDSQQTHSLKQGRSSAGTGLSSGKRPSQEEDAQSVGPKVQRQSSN

Amino acid sequences for entries named in this document (tags omitted). A change or cut given only in a name is not applied to a line headed by its entry. Residues count along the entry.
UniProt O35973, whole entry: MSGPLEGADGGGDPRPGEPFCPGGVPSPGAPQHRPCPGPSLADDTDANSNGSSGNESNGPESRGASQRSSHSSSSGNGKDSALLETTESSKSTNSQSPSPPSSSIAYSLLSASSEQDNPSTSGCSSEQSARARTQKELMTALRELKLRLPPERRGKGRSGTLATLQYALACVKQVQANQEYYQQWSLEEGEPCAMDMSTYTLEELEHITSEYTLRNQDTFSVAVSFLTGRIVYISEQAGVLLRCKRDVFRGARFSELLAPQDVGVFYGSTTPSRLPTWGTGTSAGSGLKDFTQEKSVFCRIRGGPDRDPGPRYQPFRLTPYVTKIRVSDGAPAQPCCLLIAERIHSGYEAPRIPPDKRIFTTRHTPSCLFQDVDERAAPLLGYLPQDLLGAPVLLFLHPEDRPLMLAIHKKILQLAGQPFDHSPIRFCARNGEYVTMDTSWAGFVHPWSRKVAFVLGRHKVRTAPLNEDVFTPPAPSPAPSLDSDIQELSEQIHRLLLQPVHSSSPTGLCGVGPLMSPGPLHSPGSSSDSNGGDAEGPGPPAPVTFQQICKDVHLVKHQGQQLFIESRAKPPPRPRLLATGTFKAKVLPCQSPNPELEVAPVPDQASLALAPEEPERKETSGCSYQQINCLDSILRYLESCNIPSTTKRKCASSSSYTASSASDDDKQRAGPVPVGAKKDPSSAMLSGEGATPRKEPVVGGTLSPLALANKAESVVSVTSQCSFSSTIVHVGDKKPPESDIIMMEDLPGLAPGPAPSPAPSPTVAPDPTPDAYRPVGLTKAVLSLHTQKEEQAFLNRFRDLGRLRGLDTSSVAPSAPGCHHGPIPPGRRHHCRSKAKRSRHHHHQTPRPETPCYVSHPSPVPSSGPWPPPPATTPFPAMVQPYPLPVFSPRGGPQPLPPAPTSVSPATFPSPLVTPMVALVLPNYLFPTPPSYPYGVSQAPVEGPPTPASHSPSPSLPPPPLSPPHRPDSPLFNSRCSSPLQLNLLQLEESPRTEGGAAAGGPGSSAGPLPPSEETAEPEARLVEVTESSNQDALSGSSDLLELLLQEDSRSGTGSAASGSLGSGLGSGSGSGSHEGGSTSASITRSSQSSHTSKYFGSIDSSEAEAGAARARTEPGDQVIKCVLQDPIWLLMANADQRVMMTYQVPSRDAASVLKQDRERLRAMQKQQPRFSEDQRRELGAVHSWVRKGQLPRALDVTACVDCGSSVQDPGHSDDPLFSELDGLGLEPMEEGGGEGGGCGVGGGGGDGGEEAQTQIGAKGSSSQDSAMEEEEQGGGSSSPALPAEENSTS
UniProt O35973, 1013-1291: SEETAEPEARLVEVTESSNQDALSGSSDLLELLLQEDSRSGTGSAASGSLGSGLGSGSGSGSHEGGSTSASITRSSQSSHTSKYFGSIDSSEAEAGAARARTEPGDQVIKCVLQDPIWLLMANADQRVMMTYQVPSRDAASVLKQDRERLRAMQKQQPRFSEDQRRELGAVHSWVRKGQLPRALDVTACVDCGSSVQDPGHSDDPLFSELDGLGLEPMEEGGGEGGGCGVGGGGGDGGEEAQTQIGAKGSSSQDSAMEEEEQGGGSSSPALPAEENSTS

CRY2-PHR (1-512) = target: T2, CRY2-PHR (1-512) (UniProt Q9R194); assay: SEC
T2 sequence: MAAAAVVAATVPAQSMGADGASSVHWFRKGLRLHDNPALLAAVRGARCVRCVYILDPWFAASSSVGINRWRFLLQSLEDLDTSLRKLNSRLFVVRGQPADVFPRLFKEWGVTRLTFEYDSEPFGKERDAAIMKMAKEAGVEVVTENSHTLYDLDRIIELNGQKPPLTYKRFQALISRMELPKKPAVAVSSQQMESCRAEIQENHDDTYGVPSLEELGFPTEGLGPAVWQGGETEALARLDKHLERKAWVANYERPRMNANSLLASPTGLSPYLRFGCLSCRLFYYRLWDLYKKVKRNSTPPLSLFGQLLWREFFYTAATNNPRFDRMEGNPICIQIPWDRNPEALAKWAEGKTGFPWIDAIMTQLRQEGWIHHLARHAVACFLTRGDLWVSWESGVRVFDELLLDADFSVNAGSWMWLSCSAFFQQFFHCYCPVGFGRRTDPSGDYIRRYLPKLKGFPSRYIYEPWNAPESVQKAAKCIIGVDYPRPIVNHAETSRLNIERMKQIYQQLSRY

| Substance | binding (V5-tagged CRY1) | binding (CRY2-PHR (1-512)) |
| --- | --- | --- |
| Flag-tagged full-length PER1 (from UniProt O35973 1-1291) | binds |  |
| Flag-tagged full-length PER1 D1197A (from UniProt O35973 1-1291) | binds |  |
| Flag-tagged full-length PER1 R1111A D1197A (from UniProt O35973 1-1291) | binds |  |
| Flag-tagged full-length PER1 R1111A R1113A (from UniProt O35973 1-1291) | binds |  |
| PER1 1013-1291 (from UniProt O35973 1013-1291) (domain or fragment) |  | binds |

Source: paper doi:10.1101/2023.06.05.543739
